The list shows a part of the results. Repeats in this data set agree poorly, so a single value says little.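 Free-swimming zebrafish larvae were assessed for O-bend response probability to dark flashes (naive: first five; training: remaining flashes across four 60-flash blocks; test: later 60-flash block) and for OMR turning toward alternating leftward/rightward LED motion. Six treated larvae were compared against sixty 0.1% DMSO controls; hits required |SSMD|≥2.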
Tested on: Danio rerio larvae (5 dpf, TLF)
Assay: OMR-Perf (SSMD vs DMSO vehicle); higher = higher than vehicle (e.g. higher dark-flash O-bend response probability, or better optomotor performance)
Conditions: 10 µM; pre-incubation: 30-90 min

| Structure (SMILES) | OMR-Perf |
| --- | --- |
| CCCCCCCCCC(=O)N[C@@H](Cc1c[nH]c2ccccc12)C(=O)N[C@H](CC(N)=O)C(=O)N[C@@H](CC(=O)O)C(=O)N[C@@H]1C(=O)NCC(=O)N[C@H](CCCN)C(=O)N[C@@H](CC(=O)O)C(=O)N[C@@H](C)C(=O)N[C@@H](CC(=O)O)C(=O)NCC(=O)N[C@H](CO)C(=O)N[C@@H]([C@@H](C)CC(=O)O)C(=O)N[C@@H](CC(=O)c2ccccc2N)C(=O)O[C@@H]1C [Daptomycin] | -0.301 |
| CC(C(=O)O)c1cccc(C(=O)c2ccccc2)c1 (stereo unspecified) [Ketoprofen] | -0.431 |
| COc1ccc(/C=C/C(=O)Nc2ccccc2C(=O)O)cc1OC [Tranilast] | -0.338 |
| NC1(Cc2ccc(Cl)cc2)CCN(c2ncnc3[nH]ccc23)CC1 | -0.932 |
| CN(C)CCN(Cc1ccccc1)c1ccccn1.Cl [Tripelennamine HCl] | 0.297 |
| COc1ccc(-c2cc(=O)c3c(OC)c(OC)c(OC)c(OC)c3o2)cc1 [Tangeretin] | -1.38 |

Tested on: Danio rerio larvae (5 dpf, TLF)
Assay: Prob-Test (SSMD vs DMSO vehicle); higher = higher than vehicle (e.g. higher dark-flash O-bend response probability, or better optomotor performance)
Conditions: 10 µM; pre-incubation: 30-90 min

| Structure (SMILES) | Prob-Test |
| --- | --- |
| CNC(=O)c1cc(Oc2ccc(NC(=O)Nc3cc(C(C)(C)C)nn3-c3ccc4ncccc4c3)c(F)c2)ccn1 [DCC-2036 (Rebastinib)] | 0.381 |
| CNC(=O)CN(CCN(CCN(CC(=O)[O-])CC(=O)NC)CC(=O)[O-])CC(=O)[O-].O.[Gd+3] [Gadodiamide] | -0.287 |
| COc1cccc2c1C(=O)c1c(O)c3c(c(O)c1C2=O)C[C@@](O)(C(=O)CO)C[C@H]3O[C@H]1C[C@H](N)[C@H](O)[C@H](C)O1.Cl [Doxorubicin (Adriamycin)] | 0.257 |
| CC1(C)S[C@@H]2[C@H](NC(=O)Cc3ccccc3)C(=O)N2[C@H]1C(=O)[O-].[Na+] [Penicillin G Sodium] | -0.0705 |
| CC(C)(C)C(=O)OCOP(=O)(COCCn1cnc2c(N)ncnc21)OCOC(=O)C(C)(C)C [Adefovir Dipivoxil] | -0.122 |
| CCCCCCCCCCC[C@@H](C[C@@H]1OC(=O)[C@H]1CCCCCC)OC(=O)[C@H](CC(C)C)NC=O [Orlistat] | -0.0453 |
| CCC[C@@H]1O[C@@H]2C[C@H]3[C@@H]4CCC5=CC(=O)C=C[C@]5(C)[C@@H]4[C@H](O)C[C@]3(C)[C@@]2(C(=O)CO)O1 [Budesonide] | 0.402 |
| CC(C)(S)[C@@H](N)C(=O)O [Penicillamine (Cuprimine)] | -0.087 |
| NC(=O)c1ccc(N(C(N)=O)c2c(F)cccc2F)nc1-c1ccc(F)cc1F | -0.393 |
| CCOC(=O)O[C@@]1(C(=O)OCCl)CC[C@H]2[C@@H]3CCC4=CC(=O)C=C[C@]4(C)[C@@H]3[C@H](O)C[C@@]21C [Loteprednol etabonate] | 0.549 |
| C[C@@](Cc1ccc(O)c(O)c1)(NN)C(=O)O [Carbidopa] | 0.0557 |
| CC(C)c1ccccc1Cc1cc(C(=O)Nc2ccc(S(=O)(=O)c3ccccc3C(C)(C)C)cc2)c(O)c(O)c1O | -0.298 |
| CS(=O)c1ccc(-c2nc(-c3ccc(F)cc3)c(-c3ccncc3)[nH]2)cc1 (stereo unspecified) | -0.0339 |
| Clc1ccc(C2(c3ccc(-c4cn[nH]c4)cc3)CCNCC2)cc1 | -0.179 |
| CC[C@H](/C=C/[C@@H](C)[C@@H]1CC[C@H]2[C@@H]3CC=C4C[C@@H](O)CC[C@]4(C)[C@@H]3CC[C@@]21C)C(C)C [Stigmasterol] | 0.917 |
| CC(=O)NC[C@H]1CN(c2ccc(N3CCOCC3)c(F)c2)C(=O)O1 [Linezolid] | 0.441 |
| CC[N+](CC)(CC)CCOc1cccc(OCC[N+](CC)(CC)CC)c1OCC[N+](CC)(CC)CC.[I-].[I-].[I-] [Gallamine Triethiodide] | -0.431 |
| CN1CCN(c2ccc3nc(-c4c(N)c5c(F)cccc5[nH]c4=O)[nH]c3c2)CC1 [Dovitinib (TKI-258, CHIR-258)] | -0.813 |
| O=C(Nc1cccc(Cl)c1)c1ccccn1 | 0.217 |
| CC(O)C(=O)O.CC(O)C(=O)O.CN1CCN(c2ccc3nc(-c4c(N)c5c(F)cccc5[nH]c4=O)[nH]c3c2)CC1 [Dovitinib (TKI-258) Dilactic Acid] | -0.0474 |

Quoted from the results shown, three compounds:

| Structure (SMILES) | Prob-Test |
| --- | --- |
| Clc1ccc(C2(c3ccc(-c4cn[nH]c4)cc3)CCNCC2)cc1 | -0.179 |
| CC[C@H](/C=C/[C@@H](C)[C@@H]1CC[C@H]2[C@@H]3CC=C4C[C@@H](O)CC[C@]4(C)[C@@H]3CC[C@@]21C)C(C)C [Stigmasterol] | 0.917 |
| CC(=O)NC[C@H]1CN(c2ccc(N3CCOCC3)c(F)c2)C(=O)O1 [Linezolid] | 0.441 |

Additional structures:

| Structure (SMILES) | Prob-Test |
| --- | --- |
| C[C@@H]1C(=O)O[C@H]2CC34[C@H]5C[C@@H](C(C)(C)C)C36[C@@H](OC(=O)[C@H]6O)O[C@@]4(C(=O)O5)[C@]21O (stereo partly specified) [Ginkgolide A] | -0.2 |
| CC1(C)[C@@H](O[C@H]2O[C@H](C(=O)O)[C@@H](O)[C@H](O)[C@@H]2O[C@@H]2O[C@H](C(=O)O)[C@@H](O)[C@H](O)[C@H]2O)CC[C@@]2(C)[C@H]3C(=O)C=C4[C@@H]5C[C@@](C)(C(=O)O)CC[C@]5(C)CC[C@@]4(C)[C@]3(C)CC[C@@H]12.N [Ammonium Glycyrrhizinate] | -0.358 |
| C#C[C@@]1(O)CC[C@H]2[C@@H]3CCc4cc(O)ccc4[C@@H]3CC[C@@]21C [Ethinyl Estradiol] | -0.227 |
| COc1ccc(NS(=O)(=O)c2sc3ccc(Cl)cc3c2C)cc1N1CCNCC1 | 0.00832 |
| CC(=O)Oc1cccc2c1C(=O)c1c(OC(C)=O)cc(C(=O)O)cc1C2=O [Diacerein] | -0.38 |
| C[C@@]12CC[C@H]3c4ccc(O)cc4C[C@@H](CCCCCCCCCS(=O)CCCC(F)(F)C(F)(F)F)[C@H]3[C@@H]1CC[C@@H]2O (stereo partly specified) [Fulvestrant] | 0.19 |
| CCC(NC(C)C)C(O)c1ccc(O)c(O)c1.CS(=O)(=O)O (stereo unspecified) [Isoetharine Mesylate] | -0.448 |
| CC(C)(C#N)c1ccc(N2C(=O)OCc3cnc4ccc(-c5cnc6ccccc6c5)cc4c32)cc1 | -0.557 |
| O=C1CCC(N2C(=O)c3ccccc3C2=O)C(=O)N1 (stereo unspecified) [Thalidomide] | 0.0741 |
| CC(C)N(CCCNC(=O)Nc1ccc(C(C)(C)C)cc1)C[C@H]1O[C@@H](n2ccc3c(N)ncnc32)[C@H](O)[C@@H]1O | 0.168 |
| [O-][n+]1cccc(CO)c1 [Mepiroxol] | -0.0117 |
| C[C@H](CS)C(=O)N1CCC[C@@H]1C(=O)O [Captopril] | -0.198 |
| C=CC[C@@H]1/C=C(\C)C[C@H](C)C[C@H](OC)[C@@H]2O[C@@](O)(C(=O)C(=O)N3CCCC[C@H]3C(=O)O[C@H](/C(C)=C/[C@@H]3CC[C@H](O)[C@H](OC)C3)[C@H](C)[C@@H](O)CC1=O)[C@H](C)C[C@@H]2OC [Tacrolimus (FK506)] | 1.35 |
| NC[C@H]1O[C@H](O[C@H]2[C@@H](O)[C@@H](O[C@H]3O[C@H](CO)[C@@H](O)[C@H](N)[C@@H]3O)[C@H](N)C[C@@H]2N)[C@@H](N)C[C@@H]1O [Tobramycin] | -0.182 |
| CCCCCCCCCC(=O)N[C@@H](Cc1c[nH]c2ccccc12)C(=O)N[C@H](CC(N)=O)C(=O)N[C@@H](CC(=O)O)C(=O)N[C@@H]1C(=O)NCC(=O)N[C@H](CCCN)C(=O)N[C@@H](CC(=O)O)C(=O)N[C@@H](C)C(=O)N[C@@H](CC(=O)O)C(=O)NCC(=O)N[C@H](CO)C(=O)N[C@@H]([C@@H](C)CC(=O)O)C(=O)N[C@@H](CC(=O)c2ccccc2N)C(=O)O[C@@H]1C [Daptomycin] | 0.712 |
| CC(C(=O)O)c1cccc(C(=O)c2ccccc2)c1 (stereo unspecified) [Ketoprofen] | 0.0123 |
| COc1ccc(/C=C/C(=O)Nc2ccccc2C(=O)O)cc1OC [Tranilast] | -0.41 |
| NC1(Cc2ccc(Cl)cc2)CCN(c2ncnc3[nH]ccc23)CC1 | -0.493 |
| CN(C)CCN(Cc1ccccc1)c1ccccn1.Cl [Tripelennamine HCl] | 0.162 |
| COc1ccc(-c2cc(=O)c3c(OC)c(OC)c(OC)c(OC)c3o2)cc1 [Tangeretin] | -1.77 |
